## Screening data

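A panel of named gynecologic cancer cell lines (ovarian and cervical) is scored for viability by ATP-dependent luminescence after 48 hours of compound exposure. Each compound was tested at five concentrations, including 0.46, 2.3 and 57.5 µM as the top dose. The number is the fitted AC50 potency, and a lower value means stronger cell killing. Calls follow an activity score built from curve class and fitted AC50: 40 to 100 is active, 1 to 39 is inconclusive, and 0 is inactive.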

Values are in µM. Every entry below has the call inconclusive. These entries are mostly ones the record files as inconclusive; other results of the assay are not listed here. Potencies fitted to partial, single-point or poorly fitting curves are rough. The first word of each remark tells which way the curve ran; it can be opposite to the aim of the assay. Activity scores are not listed here.

SMILES: O=S(=O)(c1ccc(Cl)cc1)c1ccc(Cl)cc1
setting: OV90
potency (µM): 17.78
remark: cytotoxic, partial curve

SMILES: Cc1coc2c1CC1OC1(C)CCC1OC1(C)C2 (centres unmarked)
setting: SKOV3
potency (µM): 8.912
remark: rising, partial curve

SMILES: CC1CCC23COC(=O)C2=CC(O)CC3C1(C)CCc1ccoc1 (centres unmarked)
setting: SKOV3
potency (µM): 8.912
remark: rising, partial curve

SMILES: C#C[C@]1(O)CC[C@H]2[C@@H]3CCC4=CC(=O)CC[C@@H]4[C@H]3CC[C@@]21C
setting: OV90
potency (µM): 35.48
remark: cytotoxic, single point

SMILES: C[C@]12CCC(=O)C=C1CC[C@@H]1[C@@H]2C(=O)C[C@@]2(C)[C@H]1CC[C@]2(O)C(=O)CO
setting: PA-1
potency (µM): 31.62
remark: rising, single point

SMILES: CS(=O)(=O)OCCCCOS(C)(=O)=O
setting: SKOV3
potency (µM): 8.912
remark: rising, single point

SMILES: CNC(=O)NC(O)C(Cl)(Cl)Cl (centres unmarked)
setting: Hek293T; control line for the selectivity index
potency (µM): 8.912
remark: rising, partial curve, poor fit

SMILES: CCN(CC)CCOc1ccccc1C(=O)CCc1ccccc1
setting: OV90
potency (µM): 31.62
remark: cytotoxic, partial curve, poor fit

SMILES: CCC(=O)O[C@H]1CC[C@H]2[C@@H]3CCC4=CC(=O)CC[C@]4(C)[C@H]3CC[C@]12C
setting: OV90
potency (µM): 5.623
remark: rising, single point

SMILES: COc1cc(NS(=O)(=O)c2ccc(N)cc2)nc(OC)n1
setting: OV90
potency (µM): 28.18
remark: rising, partial curve, poor fit

SMILES: CN(C)c1ccc(C2Nc3ccc4ccccc4c3C3=C2C(=O)CC(C)(C)C3)cc1Br (centres unmarked)
setting: Tov-21-G
potency (µM): 25.12
remark: rising, single point

SMILES: CCN1CCN(C(=O)N[C@@H](C(=O)N[C@@H]2C(=O)N3[C@@H]2SC(C)(C)[C@@H]3C(=O)O)c2ccccc2)C(=O)C1=O
setting: SKOV3
potency (µM): 39.81
remark: rising, partial curve, poor fit

SMILES: COc1cc2c(cc1OC)N1C(=O)C[C@]34C=CCN5CC[C@@H]2[C@@H](CC3)[C@]514
setting: CASKI
potency (µM): 31.62
remark: cytotoxic, partial curve, poor fit

SMILES: Cl/C(=C\n1cncn1)c1ccc(Cl)cc1Cl
setting: HeLa
potency (µM): 31.62
remark: cytotoxic, single point

SMILES: COc1ccc(CCN(C)CCCC(C#N)(c2cc(OC)c(OC)c(OC)c2)C(C)C)cc1OC (centres unmarked)
setting: PA-1
potency (µM): 25.12
remark: rising, single point

SMILES: COc1ccc(Cl)cc1[C@@]1(F)C(=O)Nc2cc(C(F)(F)F)ccc21
setting: HeLa
potency (µM): 39.81
remark: cytotoxic, single point

SMILES: CCCCNc1c(C(=O)OCC)c(C)nc2c1cnn2CC
setting: SKOV3
potency (µM): 28.18
remark: cytotoxic, single point

SMILES: CCC(C)/C=C(C)/C=C/C1=CC2=C(Cl)C(=O)C(C)(OC(C)=O)C(=O)C2=CN1C(CCC(=O)O)C(=O)O (centres unmarked)
setting: Hek293T; control line for the selectivity index
potency (µM): 19.95
remark: cytotoxic, single point

SMILES: Cc1c(N(C)CS(=O)(=O)O)c(=O)n(-c2ccccc2)n1C
setting: HeLa
potency (µM): 1

SMILES: Cc1cc(C(=O)N2Cc3cnn(C)c3Nc3ccccc32)ccc1CNC(=O)N1CCN(Cc2cc(O)cc(O)c2)CC1
setting: SKOV3
potency (µM): 3.162
remark: rising, partial curve, poor fit

SMILES: Cc1cc(N2CCCCC2)nc2ccccc12
setting: SKOV3
potency (µM): 5.623
remark: rising, single point

SMILES: C[C@H]1O[C@@H](O[C@H]2C[C@@H](O)[C@]3(CO)C4C(CC[C@]3(O)C2)[C@@]2(O)CC[C@H](C3=CC(=O)OC3)[C@@]2(C)C[C@H]4O)[C@@H](O)[C@@H](O)[C@H]1O (some centres unmarked)
setting: JEG-3
potency (µM): 1.259
remark: cytotoxic, single point

SMILES: C[C@H]1O[C@@H](O[C@H]2C[C@@H](O)[C@]3(CO)C4C(CC[C@]3(O)C2)[C@@]2(O)CC[C@H](C3=CC(=O)OC3)[C@@]2(C)C[C@H]4O)[C@@H](O)[C@@H](O)[C@H]1O (some centres unmarked)
setting: CASKI
potency (µM): 1
remark: cytotoxic, full curve, poor fit

SMILES: CN(C)C/C=C(/c1ccc(Br)cc1)c1cccnc1
setting: Es-2
potency (µM): 2.512
remark: cytotoxic, single point

SMILES: CN(C)CCc1c[nH]c2ccc(O)cc12
setting: CAOV3
potency (µM): 31.62
remark: rising, partial curve, poor fit

SMILES: C/C=C(/C)C(=O)OC1C(OC(C)=O)C23C(O)OC4(CCC5C6(C)CCC(OC7OC(C(=O)O)C(O)C(OC8OC(CO)C(O)C(O)C8OC8OC(C)C(O)C(O)C8OC8OCC(O)C(O)C8O)C7OC7OC(CO)C(O)C(O)C7O)C(C)(C)C6CCC5(C)C4(C)CC2OC(C)=O)C3CC1(C)C (centres unmarked)
setting: SKOV3
potency (µM): 0.0447
remark: rising, full curve, poor fit

SMILES: COc1ccc(CCNCc2ccc(OC)c3ccccc23)cc1
setting: JEG-3
potency (µM): 28.18
remark: cytotoxic, single point

SMILES: OCCOCCN1CCN(C2=Nc3ccccc3Sc3ccccc32)CC1
setting: CAOV3
potency (µM): 39.81
remark: rising, single point

The first 2 entries again:

{"smiles": "O=S(=O)(c1ccc(Cl)cc1)c1ccc(Cl)cc1", "setting": "OV90", "potency (µM)": "17.78", "remark": "cytotoxic, partial curve"}
{"smiles": "Cc1coc2c1CC1OC1(C)CCC1OC1(C)C2", "stereo": "centres unmarked", "setting": "SKOV3", "potency (µM)": "8.912", "remark": "rising, partial curve"}

From PubChem BioAssay record AID1345084 (NCATS, 2018).